The text below walks through data of PubChem BioAssay AID1487 (National Center for Advancing Translational Sciences (NCATS), 2009).

Some of the results follow. Further columns of the screen follow, without active or inactive calls. Compounds called inactive in the main read-out are mostly missing here. Potencies come from curve fits of mixed quality, noted in brackets.

This experiment can be described thus: qHTS Assay for Modulators of Lamin A Splicing. The following applies: HeLa LMNA splicing GFP/RFP minigene ratio, 48 h. Summed up:
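S3 HeLa stable clones carrying a lamin A-EGFP splicing minigene plus DsRed2 were seeded at 600 cells/well in Opti-MEM with 2% FBS, pin-dosed and incubated 48 h at 37°C. Acumen cytometry (488 nm) gave the GFP/RFP total-intensity ratio.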

Where [1] appears, read: measured here: RFP viability control channel.
[2] abbreviates: measured here: GFP splicing reporter channel.

In the case of `CCN1CCN(c2nc(-c3ccncc3)nc3ccccc23)CC1`, the AC50 under setting [1] was 35.5 µM [rising, single point].

`O=C(CSc1nc(-c2cccs2)cc(C(F)(F)F)n1)NCCCn1ccnc1`: the AC50 under setting [1] is 6.31 µM [rising, full curve, poor fit].

Consider `CCN(CC)CCCNC(=O)c1oc2c(c1C)-c1nn(Cc3ccc(Cl)cc3)cc1CC2`, for which the AC50 under setting [1] is 0.891 µM [falling, partial curve, poor fit].

With `CN(CCO)c1cc(N(C)CCO)c([N+](=O)[O-])cc1[N+](=O)[O-]`, the AC50 under setting [2] is 0.0224 µM [rising, full curve, poor fit].

Consider `Cc1onc(-c2ccccc2Cl)c1C(=O)Nc1nnc(-c2ccc(F)cc2)s1`, for which the AC50 under setting [1] was 35.5 µM [rising, single point].

On to `COc1ccc(N=CC2=C(O)CC(c3ccccc3)CC2=O)c(OC)c1` (stereo not given), for which the AC50 is 8.91 µM [rising, partial curve] under setting [2] and 20 µM [rising, partial curve] under setting [1].

In the case of `COc1ccc(C(CC(=O)O)NC(=O)Nc2ccccc2)cc1OC` (stereo not given), the half-maximal activity concentration (AC50) under setting [2] is 4.47 µM [rising, partial curve] and the AC50 under setting [1] is 3.55 µM [rising, partial curve].

In the case of `CCOC(=O)Cn1c(CN2CCN(C(c3ccccc3)c3ccccc3)CC2)nc2c1c(=O)n(C)c(=O)n2C`, the AC50 under setting [1] was 10 µM [rising, partial curve].

For `Cc1nc(C(C)NC(=O)CCc2nnc(Cc3c[nH]c4ccccc34)o2)cs1` (stereo not given), the AC50 runs as follows: under setting [2], 0.141 µM [falling, full curve, poor fit]; under setting [1], 0.158 µM [falling, full curve, poor fit].

For the molecule `CCNC(=S)Nc1ccc2ncoc2c1`, the AC50 under setting [1] is 2.82 µM [rising, single point].

Regarding `NC(=O)c1ccccc1NC(=S)NC(=O)CCc1ccccc1`, the concentration at half-maximal activity (AC50) was 35.5 µM [rising, single point] under setting [2] and 10 µM [rising, partial curve] under setting [1].

Regarding `CCCn1c(N)c(C(=O)CSc2nnc(Cc3ccccc3)o2)c(=O)n(C)c1=O`, the AC50 was 0.708 µM [rising, partial curve] under setting [2] and 12.6 µM [rising, partial curve] under setting [1].

As for `COC(=O)c1ccc(NC(=O)CN(c2ccc(C)cc2)S(=O)(=O)c2c(C)n[nH]c2C)cc1`, the concentration at half-maximal activity (AC50) is 35.5 µM [falling, partial curve, poor fit] under setting [2] and 14.1 µM [falling, single point] under setting [1].

Regarding `COc1ccc(C(=O)CCC(=O)Nc2ccccc2C)cc1`, the AC50 under setting [1] was 35.5 µM [falling, partial curve].

For `O=C(CSc1cc(Cl)ccc1Cl)NCC(=O)Nc1ccc(F)c(F)c1F`, under setting [1], the AC50 is 20 µM [rising, partial curve].

For the molecule `CSc1nc(Sc2ccccc2)c2ccccc2n1`, the AC50 under setting [1] was 14.1 µM [rising, partial curve].

With `CC(C)C(=O)NCc1cc(-c2ccc(Cl)cc2)no1`, under setting [1], the AC50 is 0.00891 µM [falling, full curve, poor fit].

As for `O=C(NNC(=O)C1CC1c1ccccc1)Nc1cccc(Cl)c1` (stereo not given), the AC50 under setting [1] was 0.00891 µM [falling, full curve, poor fit].

Consider `O=[N+]([O-])c1ccc(Cl)c(CN2CCC(O)CC2)c1`, for which the AC50 under setting [1] was 35.5 µM [rising, single point].

For `O=C(CSc1nnc(NC(=O)c2c(F)cccc2F)s1)Nc1ccc(F)cc1`, the AC50 was 1 µM [falling, full curve] under setting [2] and 22.4 µM [falling, partial curve] under setting [1].

With `CCN1C/C(=C/c2ccc(N3CCOCC3)cc2)C(=O)/C(=C/c2ccc(N3CCOCC3)cc2)C1`, the AC50 reads like this: under setting [2], 35.5 µM [falling, single point]; under setting [1], 35.5 µM [falling, single point].

Regarding `Cc1ccc(C)c(N2CCN(C(=O)CN3C(=O)CSc4c3c(C)nn4-c3ccccc3)CC2)c1`, under setting [1], the AC50 is 0.00355 µM [falling, full curve, poor fit].

With `CCC1=NN(C(=O)CCc2ccc3c(c2)OCO3)C(O)(C(F)(F)F)C1` (stereo not given), the AC50 under setting [2] is 17.8 µM [falling, partial curve, poor fit] and the concentration at half-maximal activity (AC50) under setting [1] was 11.2 µM [falling, partial curve].

For the molecule `CCN(CC)c1ccc(NC(=O)c2cccc(OC)c2)c(C)c1`, the AC50 under setting [1] is 11.2 µM [rising, partial curve].

For the molecule `CC1(C)Cc2c(ccc3ccccc23)C(=O)N1`, under setting [2], the AC50 is 35.5 µM [falling, single point].

Consider `O=c1cc(N2CCCCC2)c(-c2ccccc2)nn1Cc1ccccc1`, for which the AC50 under setting [1] was 39.8 µM [falling, partial curve, poor fit].

As for `Cc1ccc(C#CC[N+]2(CC#Cc3ccc(C)cc3)CCCCC2)cc1`, the AC50 under setting [1] is 0.891 µM [rising, full curve].

Consider `COc1cc2c(cc1OC)C(c1ccccc1)N(C(=O)CCl)CC2` (stereo not given), for which the AC50 reads like this: under setting [2], 10 µM [falling, partial curve]; under setting [1], 17.8 µM [falling, partial curve].

With `Cc1c(Cl)c([N+](=O)[O-])nn1CCCC(=O)N(Cc1ccccc1)Cc1ccccc1`, under setting [1], the half-maximal activity concentration (AC50) is 12.6 µM [rising, single point].

In the case of `Cc1ccc(NC(=O)CSc2nc3ccccc3c3nc(CCn4c(C)nc5ccccc54)nn23)cc1F`, the half-maximal activity concentration (AC50) is 8.91 µM [falling, partial curve, poor fit] under setting [2] and 7.94 µM [falling, partial curve] under setting [1].

For the molecule `O=c1c2cc(NC(=S)NC3CC3)ccc2nc2n1CCCCC2`, the AC50 under setting [1] was 0.00501 µM [falling, full curve, poor fit].

`OC(CNCc1ccc(Cl)cc1)(c1ccccc1)c1ccc(F)cc1` (stereo not given): the concentration at half-maximal activity (AC50) under setting [2] was 1 µM [rising, single point].

In the case of `COc1ccc(CNCC(O)(c2ccccc2)c2ccc(Cl)cc2)cc1` (stereo not given), the half-maximal activity concentration (AC50) under setting [1] is 12.6 µM [rising, single point].

For the molecule `CC(=O)c1ccc(N2CCN(C(=O)C3CCN(S(=O)(=O)c4cccc5nonc45)CC3)CC2)cc1`, the AC50 under setting [2] is 0.398 µM [falling, full curve, poor fit] and the concentration at half-maximal activity (AC50) under setting [1] is 1.58 µM [falling, full curve].

`COc1ccccc1N1CCN(C(CNC(=O)C2CCCCC2)c2cccnc2)CC1` (stereo not given): the AC50 under setting [1] was 11.2 µM [rising, partial curve].

`CCOc1ccccc1NC(=O)Cn1c(=O)ccc2cc(S(=O)(=O)N3CCC(C)CC3)ccc21`: the concentration at half-maximal activity (AC50) under setting [2] is 11.2 µM [falling, partial curve].

Regarding `COc1cc(CC(=O)N/N=C/c2ccccc2)c([N+](=O)[O-])cc1OC`, the AC50 under setting [2] is 0.0158 µM [falling, full curve, poor fit] and the AC50 under setting [1] was 0.0178 µM [falling, full curve, poor fit].

Take `Cc1nc(N)sc1-c1csc(Nc2ccc(Cl)cn2)n1`: the AC50 under setting [1] is 20 µM [rising, single point].

For `NC(=O)c1ccc(C(=O)c2ccc([N+](=O)[O-])cc2)cc1`, under setting [1], the AC50 was 3.16 µM [falling, partial curve].

As to `FC(F)(F)c1ccccc1/C=N/Nc1ccccn1`, under setting [1], the AC50 was 5.62 µM [rising, single point].

`COc1ccc(-c2cnc(C)o2)cc1S(=O)(=O)Nc1ccc(C)c(F)c1`: the AC50 under setting [1] was 2 µM [rising, full curve].

With `CN1/C(=C\C=C2/C(=O)Oc3ccccc3C2=O)C(C)(C)c2ccccc21`, the AC50 under setting [2] is 4.47 µM [falling, full curve, poor fit].

Take `Cc1ccc(N=Nc2ccc(O)c3ncccc23)cc1`: the AC50 under setting [2] was 2.82 µM [rising, full curve] and the AC50 under setting [1] is 3.55 µM [rising, full curve].

On to `O=C1OC(Nc2ccc3c(c2)OCO3)c2ccccc21` (stereo not given), for which the AC50 by setting is: under setting [2], 3.16 µM [falling, full curve]; under setting [1], 15.8 µM [falling, partial curve, poor fit].

In the case of `CN(C)c1ccc(/C=N/N=C(N)N)cc1[N+](=O)[O-]`, under setting [2], the concentration at half-maximal activity (AC50) was 35.5 µM [falling, single point].

Regarding `CCOc1ccc(CNC(=O)c2ccc3nc(Cc4ccc(OC)cc4)oc3c2)cc1OC`, the AC50 by setting is: under setting [2], 0.355 µM [falling, full curve, poor fit]; under setting [1], 0.891 µM [falling, full curve, poor fit].

In the case of `CC1(C)CC(=O)C2=C(C1)N=C1c3ccccc3C(=O)C1C2c1ccc(Cl)cc1` (stereo not given), the AC50 under setting [1] was 11.2 µM [rising, partial curve].

In the case of `CCCNc1nc2c(c(=O)n(C)c(=O)n2C)n1Cc1cccc(C)c1`, the AC50 was 25.1 µM [rising, partial curve, poor fit] under setting [2] and 7.94 µM [rising, partial curve] under setting [1].

`Cc1ccc(-n2nnnc2Sc2ccc(S(=O)(=O)NCCN(C)C)cc2[N+](=O)[O-])cc1`: the AC50 under setting [2] is 35.5 µM [falling, single point] and the AC50 under setting [1] is 35.5 µM [falling, single point].

Turning to `CN(C(=O)COC(=O)c1ccc2[nH]c3c(c2c1)CCCC3)C1CCS(=O)(=O)C1` (stereo not given), under setting [2], the AC50 is 0.0251 µM [falling, full curve, poor fit].

`COCC(=O)NNC(=O)c1ccc(OC)cc1`: under setting [1], the AC50 is 35.5 µM [falling, single point].

For `CS(=O)(=O)N1CCN(C(=O)NC2CCCCC2)CC1`, the AC50 runs as follows: under setting [2], 11.2 µM [falling, single point]; under setting [1], 11.2 µM [falling, partial curve, poor fit].

With `CCOC(=O)C1C(=O)C=C(c2ccc(C)cc2)CC1c1ccc([N+](=O)[O-])cc1` (stereo not given), the AC50 under setting [1] is 2.51 µM [rising, partial curve, poor fit].

As to `COc1ccc(Cn2c(C3CC3)nc3ccc(NC(=O)C4CC4)cc3c2=O)cc1`, the AC50 is 1.26 µM [rising, full curve, poor fit] under setting [2] and 1.41 µM [rising, partial curve] under setting [1].

Consider `NC(=O)C1CCN(Cc2nnnn2Cc2ccco2)CC1`, for which the AC50 under setting [1] was 3.98 µM [falling, full curve, poor fit].
